Results are given in words; binding and its absence hold for the method and conditions named. Some binding calls cover weakened binding; strength is not graded here.
Experiments:
[1] = molecular target: Telomerase reverse transcriptase (dog (endogenous in canine lens epithelial cells)) (UniProt Q6A548); experiment: TF-TF interaction array (TranSignal, Panomics); nuclear extract of normal canine anterior lens capsules incubated with biotin-labelled cis-element probes, immunoprecipitation with anti-TERT, eluted cis-elements hybridised to the array membrane
[2] = molecular target: Telomerase reverse transcriptase (dog (endogenous in canine lens epithelial cells)) (UniProt Q6A548); experiment: TF-TF interaction array (TranSignal, Panomics); nuclear extract of canine anterior lens capsules (cataractous; normal too) incubated with biotin-labelled cis-element probes, immunoprecipitation with anti-TERT, eluted cis-elements hybridised to the array membrane

Protein sequences, listed by entry. Tags and fused reporters are not part of them.
UniProt Q6A548: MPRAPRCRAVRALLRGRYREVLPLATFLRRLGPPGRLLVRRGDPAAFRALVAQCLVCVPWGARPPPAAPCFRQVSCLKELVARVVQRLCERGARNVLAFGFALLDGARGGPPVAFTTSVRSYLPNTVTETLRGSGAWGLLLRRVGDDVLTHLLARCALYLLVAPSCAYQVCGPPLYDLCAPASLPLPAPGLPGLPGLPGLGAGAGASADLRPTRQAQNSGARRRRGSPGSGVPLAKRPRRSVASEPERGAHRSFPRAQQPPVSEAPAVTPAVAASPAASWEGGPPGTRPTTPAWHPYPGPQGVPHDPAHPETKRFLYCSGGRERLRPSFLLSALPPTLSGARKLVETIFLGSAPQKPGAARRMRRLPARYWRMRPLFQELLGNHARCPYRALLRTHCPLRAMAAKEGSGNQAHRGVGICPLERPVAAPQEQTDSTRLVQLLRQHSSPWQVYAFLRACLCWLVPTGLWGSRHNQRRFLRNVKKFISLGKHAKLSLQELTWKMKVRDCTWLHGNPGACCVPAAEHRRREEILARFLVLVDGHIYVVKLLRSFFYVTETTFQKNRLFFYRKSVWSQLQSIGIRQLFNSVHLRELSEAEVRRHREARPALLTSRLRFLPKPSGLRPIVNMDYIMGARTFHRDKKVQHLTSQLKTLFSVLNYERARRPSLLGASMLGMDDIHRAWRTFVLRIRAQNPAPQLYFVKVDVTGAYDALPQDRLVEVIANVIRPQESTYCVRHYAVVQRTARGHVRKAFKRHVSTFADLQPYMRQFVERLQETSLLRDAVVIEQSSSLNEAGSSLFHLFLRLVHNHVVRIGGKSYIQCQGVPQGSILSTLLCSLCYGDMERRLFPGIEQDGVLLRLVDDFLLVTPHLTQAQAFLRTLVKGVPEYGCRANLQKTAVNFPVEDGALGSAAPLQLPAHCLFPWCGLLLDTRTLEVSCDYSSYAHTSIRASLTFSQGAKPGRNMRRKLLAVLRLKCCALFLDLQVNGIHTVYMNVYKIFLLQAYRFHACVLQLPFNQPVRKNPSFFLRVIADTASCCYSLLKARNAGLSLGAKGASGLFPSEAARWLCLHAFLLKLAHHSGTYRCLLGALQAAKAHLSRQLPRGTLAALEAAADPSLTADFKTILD
UniProt Q29537: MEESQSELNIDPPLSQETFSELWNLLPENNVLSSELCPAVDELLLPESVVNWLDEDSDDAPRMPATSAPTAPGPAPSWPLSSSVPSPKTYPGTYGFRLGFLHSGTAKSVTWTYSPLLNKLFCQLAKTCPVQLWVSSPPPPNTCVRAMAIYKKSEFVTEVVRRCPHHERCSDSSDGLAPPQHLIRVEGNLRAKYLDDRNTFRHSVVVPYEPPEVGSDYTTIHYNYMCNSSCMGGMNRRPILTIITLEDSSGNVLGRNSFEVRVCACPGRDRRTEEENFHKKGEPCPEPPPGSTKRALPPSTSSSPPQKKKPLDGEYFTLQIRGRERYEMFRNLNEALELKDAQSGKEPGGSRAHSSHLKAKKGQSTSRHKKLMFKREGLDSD
UniProt A0A8I3S186: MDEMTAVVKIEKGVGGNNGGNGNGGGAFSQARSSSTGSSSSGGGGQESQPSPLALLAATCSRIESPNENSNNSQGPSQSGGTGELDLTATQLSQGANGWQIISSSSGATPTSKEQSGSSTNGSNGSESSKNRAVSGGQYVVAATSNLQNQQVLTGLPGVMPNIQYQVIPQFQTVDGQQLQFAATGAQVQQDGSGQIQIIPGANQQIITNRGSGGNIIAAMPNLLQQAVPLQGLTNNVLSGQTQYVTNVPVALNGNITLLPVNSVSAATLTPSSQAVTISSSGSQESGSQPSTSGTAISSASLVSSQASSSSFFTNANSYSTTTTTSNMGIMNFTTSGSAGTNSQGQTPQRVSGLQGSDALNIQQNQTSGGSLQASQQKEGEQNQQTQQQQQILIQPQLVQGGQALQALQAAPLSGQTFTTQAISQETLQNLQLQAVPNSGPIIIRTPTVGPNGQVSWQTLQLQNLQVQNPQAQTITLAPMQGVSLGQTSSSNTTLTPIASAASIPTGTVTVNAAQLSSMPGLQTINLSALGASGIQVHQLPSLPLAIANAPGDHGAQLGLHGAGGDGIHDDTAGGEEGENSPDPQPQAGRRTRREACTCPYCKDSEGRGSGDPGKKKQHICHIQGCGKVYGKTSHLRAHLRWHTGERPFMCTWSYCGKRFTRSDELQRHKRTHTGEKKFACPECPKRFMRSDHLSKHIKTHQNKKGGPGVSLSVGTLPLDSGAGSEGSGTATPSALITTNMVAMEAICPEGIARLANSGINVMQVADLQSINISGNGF

binding [2]	Substance	binding [1]
binds	p53 (from UniProt Q29537 1-381)	no binding (condition: in normal LEC samples)
binds	Sp1 (from UniProt A0A8I3S186 1-778)	
